Laboratory results: PubChem BioAssay AID1508597 (Cure First, 2020)

Purpose: 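Survival screen with siRNA in ovarian cancer cells derived from patients, with or without rucaparib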 (primary screen)
Cells: human ovarian carcinoma lines grown from tumours: OCI-P5x (papillary serous) and OCI-C5x (clear cell)
Reagents: siRNA pool against human genes, 1.25 pmol siRNA per well
Duration: 72 h or 96 h, depending on the cell culture
Treatment: rucaparib 20 µM (about IC30) or vehicle, present until read-out
Rucaparib or vehicle: Vehicle
Cell line: OCI-C5x (clear cell)
Read-out: 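Luminescent ATP-based viability assay read 72 or 96 h after transfection, depending on culture, given as normalised percent viability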
Reading the numbers: viability, normalised: higher = more viable cells remaining
Hit rule: 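a well counts as a hit if its normalised viability is under 80 percent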
Meaning of the calls: active = viability under 80%; inactive = viability 80% or more
Shown is an unselected part of the about 2,100 reagents, in one setting of the screen. 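Calls flag viability under 80% in either arm, not effects specific to rucaparib; the reference for percent is not stated.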 Some reagents were tested in more than one well and are listed for each. The record does not give: the 100% reference.

The opening 4 entries, ahead of the listing:
Gene | technical replicate | viability, normalised (%) | Call
ZMYND8 | 1 | 56 | active
ZMYND8 | 2 | 86.1 | inactive
ZMYND8 | 3 | 62.8 | active
LMTK1 | 1 | 83.2 | inactive

The listing, from the first entry:
Gene | technical replicate | viability, normalised (%) | Call
ZMYND8 | 1 | 56 | active
ZMYND8 | 2 | 86.1 | inactive
ZMYND8 | 3 | 62.8 | active
LMTK1 | 1 | 83.2 | inactive
LMTK1 | 2 | 50.9 | active
LMTK1 | 3 | 41.7 | active
FBXO11 | 1 | 24.1 | active
FBXO11 | 2 | 32 | active
FBXO11 | 3 | 29.6 | active
TRIM28 | 1 | 50 | active
TRIM28 | 1 | 49.8 | active
TRIM28 | 2 | 50.4 | active
TRIM28 | 2 | 36.1 | active
TRIM28 | 3 | 29.5 | active
TRIM28 | 3 | 63.4 | active
MAPK15 | 1 | 52.7 | active
MAPK15 | 2 | 48.4 | active
MAPK15 | 3 | 62.4 | active
GFI1B | 1 | 35.4 | active
GFI1B | 2 | 42.8 | active
GFI1B | 3 | 53.7 | active
EIF2AK4 | 1 | 102 | inactive
EIF2AK4 | 2 | 87 | inactive
EIF2AK4 | 3 | 119 | inactive
HIPK3 | 1 | 55 | active
HIPK3 | 2 | 44.7 | active
HIPK3 | 3 | 66.8 | active
KIF4A | 1 | 45.5 | active
KIF4A | 2 | 40.5 | active
KIF4A | 3 | 42 | active
SMUG1 | 1 | 46.4 | active
SMUG1 | 2 | 46 | active
SMUG1 | 3 | 40.6 | active
SRC | 1 | 80.2 | inactive
SRC | 2 | 71.3 | active
SRC | 3 | 57 | active
RAD52 | 1 | 45.8 | active
RAD52 | 2 | 56.9 | active
RAD52 | 3 | 63.5 | active
